Binding signal data for 54 sequences are collected here from article PMC7819943, “Rice protein-binding microarrays: a tool to detect cis-acting elements near promoter regions in rice”.

Chains of the proteins cited; added tags and fusions are not shown.
UniProt Q0JBA9, entry or part of it: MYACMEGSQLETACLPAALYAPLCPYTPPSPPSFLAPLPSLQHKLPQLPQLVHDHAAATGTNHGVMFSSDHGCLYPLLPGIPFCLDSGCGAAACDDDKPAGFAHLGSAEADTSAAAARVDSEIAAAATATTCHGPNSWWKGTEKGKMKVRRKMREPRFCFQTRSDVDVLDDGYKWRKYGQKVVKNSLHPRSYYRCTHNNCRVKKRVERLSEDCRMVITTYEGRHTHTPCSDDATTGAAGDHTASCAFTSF

The list shows a part of the results.

The assay has as its target OsWRKY34 (Oryza sativa, UniProt Q0JBA9 1-250). The assay is described as follows: protein-binding microarray (RPBM); PBS, 2% BSA, 51.3 ng/ul salmon testes DNA, 50 uM zinc acetate, 200 nM TF, 25 C, 1 h; high values mean tight binding. As to conditions: protein: recombinant; tags: N-terminal polyhistidine and DsRed monomer fusion (pET32a); label: CyDye5-dUTP incorporated in the synthesized complementary strand; 3' TTTTT single-stranded linker to array surface; dsDNA, one strand shown. A digest of the protocol: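 Using Ni–NTA, transcription factors fused N-terminally to polyhistidine and DsRed were purified after expression in E. coli BL21-CodonPlus. These were incubated at 200 nM with a blocked, double-stranded custom Agilent array for 1 h at 25 °C in a buffer containing 50 µM zinc acetate, and the array was washed. The binding signal is per-feature fluorescence intensity (arbitrary units) on an Axon 4000B scanner.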
As to “TATGTCATATATTAATTTATCTTGTTTATTTTTTTCAATTCGGAGTCACCTAGTGCAG”, the binding signal is 8660 fluorescence intensity (a.u.).
The same measure for “ATCTGGTTTTGTGATTTGAGGATGTTTTTTATTTCGCTGACGGAGTCACCTAGTGCAG”: 8750 fluorescence intensity (a.u.); for “GGCGCAGATCCAGTTAACCCTATCACATTTCACCATGTACCGGAGTCACCTAGTGCAG”: 8230 fluorescence intensity (a.u.); for “AATAAACGCCGATCCAACCGCACACTCGCGCGGTGCCGCGCGGAGTCACCTAGTGCAG”: 9020 fluorescence intensity (a.u.).
The value for “ACAAATTTAGGGACCGCTCATGCACTTCACTCTTGTTCTTCGGAGTCACCTAGTGCAG” was 8290 fluorescence intensity (a.u.).
As for “GGTTGGCCGCTGTTGTCTCTCAACCGAATCGTTGATCGCGCGGAGTCACCTAGTGCAG”, the binding signal is 8810 fluorescence intensity (a.u.).
The value for “GAGGACGAAGTGGAGGCGGAGGGCAGGTGGGGAGGAGAGCCGGAGTCACCTAGTGCAG” was 8660 fluorescence intensity (a.u.).
Turning to “TCGTTTCCCACGTGCACATTTTTCAAACCGTTAAACGGTGCGGAGTCACCTAGTGCAG”, the binding signal is 9930 fluorescence intensity (a.u.).
Turning to “AGTTCAAGACCTTGTCATCACGTTGCTCATTCCGGCCATGCGGAGTCACCTAGTGCAG”, the binding signal was 8150 fluorescence intensity (a.u.).
The value for “CCATCACCTGCCGAGCTGCTGAGCTACCCATCGTTCGCGACGGAGTCACCTAGTGCAG” was 9250 fluorescence intensity (a.u.); that for “TGACTGTTTATTTTATTTGAAATTTCTTTATGATTAGTATCGGAGTCACCTAGTGCAG” was 12100 fluorescence intensity (a.u.); that for “TTATACTACACAACGAATATGGACCGTTCTTGCTTCTTTTCGGAGTCACCTAGTGCAG” was 9130 fluorescence intensity (a.u.).
The value for “GACAGCTTCTAAAATTCTGCAAATTCCACGTGAAACAGTTCGGAGTCACCTAGTGCAG” was 8120 fluorescence intensity (a.u.).
The same measure for “ATTCCATCCATTCTCTGGGAATCGCCGTCGCCGTCGCCTTCGGAGTCACCTAGTGCAG”: 8200 fluorescence intensity (a.u.); for “TCTACTAGCCTACTACCCCACAGCAGCCAGGAACCAGCCACGGAGTCACCTAGTGCAG”: 8580 fluorescence intensity (a.u.); for “GGGGCAATTCAGGTGAGATCCCATGTAGATCTAACTTTCTCGGAGTCACCTAGTGCAG”: 8430 fluorescence intensity (a.u.).
Regarding “GTTATCATGGTTATCATGTGCGGTAGCCTTTTTAGTTTTTCGGAGTCACCTAGTGCAG”, the binding signal was 10800 fluorescence intensity (a.u.).
The same measure for “TCCGCTGCTGATCGAGCACATATGCTGAAATCTCTAATTCCGGAGTCACCTAGTGCAG”: 8040 fluorescence intensity (a.u.); for “GATCTACAACTTTTATTTTGGTCATTTTTTCATCCGATCACGGAGTCACCTAGTGCAG”: 11100 fluorescence intensity (a.u.).
For the sequence “GCACCCATTCCCGTGTTGTGCGTTGTTTTTTTAGCGATTTCGGAGTCACCTAGTGCAG”, the binding signal is 8660 fluorescence intensity (a.u.).
For “CTTAGGCCCGGTTCTTTTCTAAATAAAAATTGATTTCTTTCGGAGTCACCTAGTGCAG”, the binding signal is 8390 fluorescence intensity (a.u.).
The same measure for “CAAGGACACATAGCTTCGCTGCCGCCACACCCGACTATTACGGAGTCACCTAGTGCAG”: 9710 fluorescence intensity (a.u.); for “GTCTCGCAATTTCTTCTCTAACTGTGCAATTAGTTTTTTACGGAGTCACCTAGTGCAG”: 9090 fluorescence intensity (a.u.).
The value for “CGTGAGATCGAAACCACAGCTGCTCTGAGTTGACCTCCTTCGGAGTCACCTAGTGCAG” was 8650 fluorescence intensity (a.u.); that for “CGCTCGGAGTTCGTCTGCCTCACCACCGTCGTCGCCATGCCGGAGTCACCTAGTGCAG” was 10200 fluorescence intensity (a.u.).
The value for “TGTTCCACTGTTGTGTGTGTGGCATTCTTGTACTGCATTTCGGAGTCACCTAGTGCAG” was 11900 fluorescence intensity (a.u.); that for “GCCCTGTCGCTCGAGTTCATCCGCGTATGCTTAGCCGCGTCGGAGTCACCTAGTGCAG” was 9460 fluorescence intensity (a.u.); that for “CGATCTTATTAAGCAGTCTATTTTCACCCTTATCTTTACTCGGAGTCACCTAGTGCAG” was 8100 fluorescence intensity (a.u.).
For “TCACCCGCGCCTGGTCCCACCCGTCATGGAGAATAACAAACGGAGTCACCTAGTGCAG”, the binding signal was 8480 fluorescence intensity (a.u.).
The value for “GCAGCGCCGCCTCCGCCGTCTCTATTTTCTTTTCTAGTTGCGGAGTCACCTAGTGCAG” was 8530 fluorescence intensity (a.u.); that for “ACAAAACCTGCCGTTTCACCGCCCCTGGATTGTCCCAGAACGGAGTCACCTAGTGCAG” was 8360 fluorescence intensity (a.u.).
Turning to “TCCCCACCACGCACACCGTTGTAACAAATCACCTACATATCGGAGTCACCTAGTGCAG”, the binding signal is 8270 fluorescence intensity (a.u.).
The value for “GTTCCCGGCCACCGCGCACCGTATCGCCGCCGCCGCCGCGCGGAGTCACCTAGTGCAG” was 10500 fluorescence intensity (a.u.); that for “TCATTCCGCTACATCGATCTCTTGGGTCTTGGCTTGCCTGCGGAGTCACCTAGTGCAG” was 8960 fluorescence intensity (a.u.).
On to “ACATTCTTTGCATCATATATTAGTAGGTTTATACTGAGCCCGGAGTCACCTAGTGCAG”, for which the binding signal is 8800 fluorescence intensity (a.u.).
The value for “CTCGTTCTCTCTCTCCCAGTCTCTCACTCTCGTTCTATCTCGGAGTCACCTAGTGCAG” was 15700 fluorescence intensity (a.u.).
The value for “ATCTGGCGCCATGCATCCATCTCGATTAGCTGTCAACGCTCGGAGTCACCTAGTGCAG” was 11900 fluorescence intensity (a.u.); that for “CCACGAGTGTAGTTGGTTGGTTCATGGTTGGGCTGCCTGGCGGAGTCACCTAGTGCAG” was 10000 fluorescence intensity (a.u.).
The same measure for “TTCCTTGTGCTCCTCTGTTCTTTCTTCTCCCCTACGATTTCGGAGTCACCTAGTGCAG”: 9500 fluorescence intensity (a.u.); for “TTTGCTTCTTCTAGGCTTTTCTGTTTTATAAGGCCACTTTCGGAGTCACCTAGTGCAG”: 12500 fluorescence intensity (a.u.).
Consider “GTAGAAAAATCTGCACCGGAAGATCGCCGCCGTTCATTTCCGGAGTCACCTAGTGCAG”, for which the binding signal is 8410 fluorescence intensity (a.u.).
The value for “CGCCGCCATGTCCGCCGCCGCCGCCGCCCTCCGGCCGACCCGGAGTCACCTAGTGCAG” was 10100 fluorescence intensity (a.u.); that for “CACTTGTCAGTCGCACGTGCCCATCTCCAAACTCGCAACCCGGAGTCACCTAGTGCAG” was 8880 fluorescence intensity (a.u.); that for “GGCCGTTTGCAAGGCGTGGCTGGTTGGGTGGATGGATGGACGGAGTCACCTAGTGCAG” was 9140 fluorescence intensity (a.u.).
The value for “GCGGCACACCCACTCGTACAATTCACATGCTTCAACCTGTCGGAGTCACCTAGTGCAG” was 13100 fluorescence intensity (a.u.).
The same measure for “ACCAGCCTTTACAAAACCACGTGGTTACCTCATGATTTACCGGAGTCACCTAGTGCAG”: 9080 fluorescence intensity (a.u.).
In the case of “CATATTCTCACGCCCTACCTTTTTCTCGTCTCTTGTGTCTCGGAGTCACCTAGTGCAG”, the binding signal is 12000 fluorescence intensity (a.u.).
The value for “CTCACCATTTCATTTTATTTTTCATTTTTCACCACAAATTCGGAGTCACCTAGTGCAG” was 9050 fluorescence intensity (a.u.); that for “CGCTTGAATGCTCTCGGAAACGGACGTTTTCTCTCGGGTCCGGAGTCACCTAGTGCAG” was 8220 fluorescence intensity (a.u.).
The value for “CTTCCGCACGACGTCGCGTACGTCTCGTCTCGGTATATTTCGGAGTCACCTAGTGCAG” was 8240 fluorescence intensity (a.u.); that for “ATTTCGTGCACTTCAGTTTCTTGCGTGCGAGCATCGATTTCGGAGTCACCTAGTGCAG” was 8850 fluorescence intensity (a.u.).
The same measure for “GTTTTGTTAAATCCATTATCTTGTTTGTTTTGTTCACTTTCGGAGTCACCTAGTGCAG”: 11900 fluorescence intensity (a.u.); for “ATCACGTGTGCCACGTGTCCTTTGACCAGCGACACGTGTCCGGAGTCACCTAGTGCAG”: 8230 fluorescence intensity (a.u.); for “AGCGTGCACATAATGAGTTTTTTCATCACGACAATTCTTCCGGAGTCACCTAGTGCAG”: 10200 fluorescence intensity (a.u.).
